Data on 59 compounds can be found in PubChem BioAssay AID2685 (National Center for Advancing Translational Sciences (NCATS), 2010).

The list shows a part of the results. Further columns of the screen follow, without active or inactive calls. The list favours compounds with an active or inconclusive main result. Potencies come from curve fits of mixed quality, noted in brackets.

The nature of this assay: qHTS Assay for Lipid Storage Modulators in Drosophila S3 Cells.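 As to cell number change: cells counted by Cell Tracker Red CMTPX staining in the red channel.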 Particulars: BODIPY lipid droplet fluorescence, 18-24 h; for cell number change: measured here: cell count max response, cells fed with added oleic acid. The essentials: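 Drosophila S3 cells got compounds at several concentrations plus oleic acid (400 uM solution). Laser-scanning cytometry with 488 nm excitation read lipid droplets at 500-530 nm and cells at 575-640 nm. Percent activity was relative to 20 uM Triacsin C.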

Where [1] appears, read: measured here: lipid fluorescence (Fed channel) AC50, cells fed with added oleic acid.
The mark [2] stands for this setting: measured here: cell number channel AC50, cells fed with added oleic acid.

Consider `CNC(=O)C1CCN(S(=O)(=O)c2c(C)noc2/C=C/c2ccc(OC)cc2)CC1`, for which the cell number change was -4.8%. Also, under setting [1], the AC50 (as a rule, the concentration giving half of the maximal activity seen) is 0.259 µM [rising, full curve, poor fit].

Take `CCN1C(=O)[C@H]2[C@@H](c3ccc(-c4ccccc4)cc3)N[C@@](Cc3ccccc3)(C(=O)OC)[C@H]2C1=O`: the AC50 under setting [1] was 29.1 µM [rising, single point].

Turning to `CCCNC(=O)c1ccc2c(c1)CCN2S(C)(=O)=O`, the cell number change is -0.664%. Besides, under setting [1], the half-maximal activity concentration (AC50) was 4.47 µM [falling, single point].

Turning to `O=C1/C(=C/c2cccc(O)c2)SC(=S)N1CC1CCCO1` (stereo not drawn), the cell number change was -29.4%. The AC50 under setting [1] was 32.6 µM [falling, single point].

Consider `CNC(=O)c1oc(-c2ccc(Cl)cc2)nc1C`, for which the AC50 under setting [1] was 5.17 µM [falling, full curve, poor fit].

Consider `Cc1ccccc1-c1nc(CS(=O)CC(=O)NC2CCCCC2)c(C)o1` (stereo not drawn), for which the cell number change is -8.94%. Besides, the AC50 under setting [1] was 11.6 µM [falling, partial curve, poor fit].

Consider `O=C(Nc1ccccn1)Nc1ccccc1Cl`, for which the cell number change was determined as 10.7%. Also, the AC50 under setting [1] was 29.1 µM [rising, single point].

For `COC(=O)C1=C(C)NC(=O)/C1=C\c1cc(C)n(-c2c(C)cccc2C)c1C`, the cell number change was -2.86%. The AC50 under setting [2] was 1.3 µM [rising, full curve]. In addition, the AC50 under setting [1] was 1.3 µM [rising, full curve].

Take `Cc1ccccc1C(=O)NNC(=S)NC(=O)c1cccs1`: the cell number change was -21.4%. Besides, the AC50 under setting [1] was 0.58 µM [rising, single point].

`COc1ccc(S(=O)(=O)/N=C2/NC(=O)/C(=C\c3cc(OC)c(OC)cc3[N+](=O)[O-])S2)cc1`: the AC50 under setting [1] is 1.46 µM [falling, partial curve, poor fit].

For `CCN(CC)CCOC(=O)C1(C2CCCCC2)CCCCC1`, the cell number change turned out to be 4%. The AC50 under setting [1] was 29.1 µM [falling, single point].

Turning to `CCCCN(CCCC)Cc1ccc(C(=O)NNC(=O)Nc2ccc(Cl)cc2)o1`, the cell number change is -29.4%. Moreover, under setting [1], the AC50 is 32.6 µM [falling, partial curve, poor fit].

As for `CC(NCC1COc2ccccc2O1)C1COc2ccccc2O1` (stereo not drawn), the cell number change was -24.6%.

`COc1cc(CNC(=O)CCC(=O)N2C[C@H]3C[C@H](C2)c2cccc(=O)n2C3)cc(OC)c1OC`: the cell number change was -6.71%. Further, the AC50 under setting [1] was 0.0651 µM [falling, full curve, poor fit].

Take `COc1cc(OC)c(NC(=O)C2CC(=O)N(c3ccc4c(c3)OCCO4)C2)cc1Cl` (stereo not drawn): the cell number change is -14.1%. Moreover, the AC50 under setting [1] is 0.58 µM [rising, single point].

`Cc1nn(Cc2nc(-c3cccs3)no2)c(C)c1Br`: the cell number change was -34.9%. The AC50 under setting [2] was 20.6 µM [falling, single point]. In addition, the AC50 under setting [1] was 0.00461 µM [rising, full curve, poor fit].

`C=C(C)C1CC=C(C)/C(=N/NC(=O)CNc2ccc(OCC)cc2)C1` (stereo not drawn): the cell number change is -28.7%. The AC50 under setting [2] was 4.61 µM [falling, full curve, poor fit].

With `Cc1ccc(NS(=O)(=O)c2ccc(C)c(NC(=O)COc3ccccc3)c2)c(C)c1`, the cell number change was determined as 31%. Moreover, under setting [2], the AC50 is 29.1 µM [rising, single point]. Besides, the AC50 under setting [1] was 6.51 µM [rising, full curve].

As for `COc1ccc(Oc2cn[nH]c2-c2ccc(O)cc2O)cc1`, the cell number change is -15.4%. Moreover, the AC50 under setting [1] was 25.9 µM [rising, single point].

On to `Nc1nc(Cl)cc(NCCc2ccc(O)cc2)n1`, for which the cell number change turned out to be 26.6%.

Take `CCn1c(CSc2nnc(-c3ccoc3C)n2C)nc2cc(S(=O)(=O)N(C)C)ccc21`: the cell number change was found to be 12%. Besides, under setting [1], the concentration at half-maximal activity (AC50) was 6.51 µM [rising, full curve, poor fit].

On to `Cc1ccc(CNC(=O)CN2C(=O)NC(C)(c3cccc(Br)c3)C2=O)cc1` (stereo not drawn), for which the cell number change is 85.6%. Besides, the AC50 under setting [2] is 10.3 µM [rising, partial curve]. Moreover, the AC50 under setting [1] is 29.1 µM [rising, single point].

Consider `O=C(c1cnc2sccn2c1=O)N(Cc1ccccc1)c1ccccn1`, for which the cell number change came to 4.38%. Besides, the AC50 under setting [1] is 0.0058 µM [falling, full curve, poor fit].

For `O=C1C(CCCNC(=S)NCc2ccccc2)NC(=S)N1Cc1ccccc1` (stereo not drawn), the cell number change is -44.1%. The AC50 under setting [2] is 16.4 µM [falling, single point]. Further, under setting [1], the AC50 is 14.6 µM [falling, partial curve].

Consider `Cc1ccc(C(=O)Nc2ccccc2N2CCN(C(=O)C(C)C)CC2)cc1`, for which the cell number change worked out at 6.19%. Besides, under setting [1], the AC50 is 2.06 µM [falling, partial curve].

Turning to `Cc1ccccc1-n1nc(CSc2nc3ccccc3[nH]2)c(-c2ccccc2)c1N`, the cell number change is -19.2%. Moreover, the AC50 under setting [1] was 23.1 µM [falling, single point].

For the compound `Cn1ncc([N+](=O)[O-])c1C(=O)Nc1cccc2ccccc12`, the cell number change was found to be 11.7%. Also, the concentration at half-maximal activity (AC50) under setting [1] is 29.1 µM [falling, partial curve].

Regarding `CCOC(=O)c1cc2sccc2n1CC(=O)OC`, the cell number change came out at 6.42%. The AC50 under setting [1] is 16.4 µM [rising, single point].

With `CCOc1ccc(CCNC(=O)c2cn(C)c3ccc(S(=O)(=O)N4CCOCC4)cc3c2=O)cc1OCC`, the cell number change was -5.19%.

Consider `COc1ccccc1-n1c(SCC(=O)NCC2CCCO2)nc2c([nH]c3ccccc32)c1=O` (stereo not drawn), for which the cell number change was 37.1%. Under setting [2], the AC50 is 18.4 µM [rising, single point]. Also, the AC50 under setting [1] was 29.1 µM [rising, single point].

As for `Cc1cnc(C(=O)OCC(=O)C23CC4CC(CC(C4)C2)C3)cn1`, the cell number change was -4.42%.

As to `C=CCN(CC=C)S(=O)(=O)c1ccc(NC(=S)NC(=O)c2ccco2)cc1`, the cell number change was -1.84%.

With `Cn1c(=O)c(C#N)c(-c2ccccc2)n2cnnc12`, the cell number change was -70.6%. In addition, the AC50 under setting [2] was 32.6 µM [falling, single point].

As for `CN(C)CCN(C(=O)c1ccc(Br)s1)c1nc2cc3c(cc2s1)OCCO3`, the AC50 under setting [1] is 6.51 µM [falling, single point].

For the compound `CC(C)(C)NC(=O)COc1coc(CN2CCN(C(=O)c3ccco3)CC2)cc1=O`, the cell number change was -1.98%. Moreover, the AC50 under setting [1] was 0.164 µM [rising, full curve, poor fit].

For `NC(=O)Nc1ccc(Oc2c(F)c(F)c(F)c(F)c2F)cc1`, the cell number change was -1.33%.

As to `Cc1ccc(S(=O)(=O)N(CC(=O)NCc2ccco2)C2CCCCC2)cc1`, the cell number change was -24.4%.

Consider `S=C(NCc1ccc2[nH]c3c(c2c1)CCCC3)Nc1ccccc1Cl`, for which the cell number change was -43.6%. In addition, the AC50 under setting [2] was 29.1 µM [falling, single point]. Further, under setting [1], the AC50 is 20.6 µM [falling, single point].

For the compound `CCCc1cc2c(cc1NC(=O)c1ccccc1F)OCO2`, the cell number change is 16.2%. In addition, the AC50 under setting [1] is 0.517 µM [rising, full curve].

For the compound `Cc1ccc(-c2cc(C(=O)N/N=C/C=C/c3ccccc3)n[nH]2)s1`, the cell number change stood at 4.32%. Further, the AC50 under setting [1] was 29.1 µM [rising, single point].

`Cc1cc(Cl)ccc1Oc1ncc(CN2CCN(c3ccccc3)CC2)s1`: the cell number change is 19.5%. The AC50 under setting [2] is 2.59 µM [rising, single point]. Further, the AC50 under setting [1] was 6.51 µM [rising, single point].

As for `Cc1ccc(S(=O)(=O)c2ccc(Cl)cc2)cc1S(=O)(=O)NC(C(=O)O)C(C)C` (stereo not drawn), the AC50 under setting [2] was 0.00517 µM [falling, full curve, poor fit].

For the compound `CCN(CC)C(=O)C1CCCN(c2ccc([N+](=O)[O-])cc2/C=N/NC(=O)c2cccc(Br)c2)C1` (stereo not drawn), the cell number change is 74.3%. Moreover, the AC50 under setting [2] is 29.1 µM [rising, single point]. For the same compound, the AC50 under setting [1] was 18.4 µM [rising, single point].

For `Cc1c(N(C)S(=O)(=O)c2cccc(C(=O)NCC3CCCO3)c2)c(=O)n(-c2ccccc2)n1C` (stereo not drawn), the cell number change was -49.3%. Besides, the AC50 under setting [2] is 20.6 µM [falling, partial curve]. Besides, under setting [1], the AC50 is 5.8 µM [falling, partial curve].

Take `O=C(N/N=C/C(Cl)=C/c1ccccc1)c1ccccn1`: the cell number change worked out at 6.41%. Also, the half-maximal activity concentration (AC50) under setting [1] was 0.058 µM [rising, full curve, poor fit].

Turning to `COc1ccccc1N1CCN(C(=O)c2cc3c(s2)CCCCC3)CC1`, the cell number change was 4.69%. The AC50 under setting [1] was 1.16 µM [falling, full curve].

As to `Cc1[nH]n(-c2cccc(Cl)c2)c(=O)c1C=NCC(C)C`, the cell number change came to 52.6%. Further, under setting [2], the AC50 was 18.4 µM [rising, single point]. The AC50 under setting [1] is 29.1 µM [rising, single point].

Regarding `CCOC(=O)CSc1nc2sc3c(c2c(=O)n1CC)CC(C)(C)OC3`, the cell number change is -3.03%.

For `Cc1ccc(S(=O)(=O)N(C(=O)c2ccncc2)c2ccc(OC(=O)c3ccncc3)cc2)cc1`, the cell number change is -4.44%. Further, the AC50 under setting [1] is 29.1 µM [falling, partial curve].

As for `Cc1cc(S(=O)(=O)N(Cc2ccc(C(C)(C)C)cc2)Cc2cccs2)ccc1-n1cnnn1`, the cell number change was -34.1%. The AC50 under setting [2] is 2.31 µM [falling, partial curve].

For the compound `CCN(CC)CCNC(=O)c1ccc(NC(=O)c2c(F)cccc2Cl)cc1`, the cell number change was found to be 47.1%. The AC50 under setting [2] was 29.1 µM [rising, single point].

As for `Cc1cc(C)n(C(=O)c2ccc(NC(=O)C3COc4ccccc4O3)cc2)n1` (stereo not drawn), the cell number change is -17.9%.

On to `O=C(Nc1cc(-c2nc3ncccc3o2)ccc1Cl)c1ccco1`, for which the cell number change was -29%. Moreover, the AC50 under setting [1] is 1.84 µM [falling, partial curve].

With `CCCn1c(SCC(=O)c2[nH]c(C)c(C(C)=O)c2C)n[nH]c1=O`, the cell number change was 6.74%.

With `Cc1ccc(S(=O)(=O)N2[C@@H](c3ccc(Cl)cc3)C(C(=O)O)=CC[C@H]2c2ccc3c(c2)OCO3)cc1`, the cell number change is -19%.

As to `CCOC(=O)C1CCCN(C(=O)c2ccc(Cl)cc2)C1` (stereo not drawn), the cell number change is 146%. Further, the AC50 under setting [2] was 16.4 µM [rising, partial curve]. In addition, the AC50 under setting [1] is 0.651 µM [rising, single point].

On to `Cc1noc(C)c1CSc1ccccc1C(=O)N(C)CC(=O)Nc1cccc(F)c1`, for which the cell number change was -10.5%. For the same compound, the AC50 under setting [1] is 4.11 µM [falling, full curve, poor fit].

`COc1cc(/C=C/C(=O)Nc2ccc(C)cc2)cc(OC)c1OC`: the AC50 under setting [1] was 0.461 µM [rising, full curve].

Turning to `CC1CN=C(N(C(=S)Nc2ccccc2)c2cccc(C(F)(F)F)c2)S1` (stereo not drawn), the cell number change came to 6.83%. Moreover, under setting [1], the AC50 is 0.731 µM [falling, single point].
